Results are given in words; binding and its absence hold for the method and conditions named. Binding seen in cells or lysates may run through a third protein. Here binding means that the protein was enriched with, or labelled near, the bait; the list need not be complete.
B1: Isa1 (protein, UniProt P78859 1-190)
chain: MLSCLSKPALRCRSVNRLQFLRKLSLQEIQTLKTQHQYLGRTRLDVETPSLKPSAAGSGSTAPKPVTEREIASTRFMPRKNVIKLTPLAVEHLKKMQSSASMKGKMLRIGVKQKGCAGQAYSLEYIEKPDKFDEIVKQDGISIIVARRALLQIIGSVMDYRDDDLQSRFIFSNPNVKSTCGCGESFSTLK
B2: Coq5 (enzyme, UniProt P87230 35-305)
chain: TSTSSKDTDTSSHMTHFGFKDVPEDEKEHLVKNVFSSVAKKYDEMNDAMSLGIHRLWKNIFVSRLNPGNSTVPMKILDVAGGTGDIAFRILNHATNHNGDRNTRVIVADINPDMLSVGLRRSKKTPYYDSGRVEFIEQNAEILDKIPDNSIDMYTIAFGIRNCTHIPKVLEQAYRVLKPGGVFSCLEFSKVYPAPLAELYRQYSFKILPLLGTIIAGDSQSYEYLVESIERFPDAKTFAKMIEDAGFTLAGETGYETLSFGIAAIHTGIKL
B3: Coq6 (enzyme, UniProt Q9Y7Z9 1-479)
chain: MSSLVLRGVSRVEMPTISPTLGIYTRKFASQKILQRQFDVVIVGSGPVGLALAAGLQSNPVTQSLKVGLLDIQDTMKLKDWKFETYSNRCSSLTNHTRMFFDKIGAWDFARKDRIQPFQHILASDGLTNSSIHLDQKPGSEPMAFMSENVNLQYALLNSIIDKMNNNIKKPNLEFLMPCTITKLSKGENIYRTHIHTTTHGELTTKLLIGADGRNSIVRKYANISMPGWNYLTHAVVGTLKIDPLKGPAVAFQRFLPTGPLAYLPLPDNNATFVWSTRPHIASKLLRLPEETFVKFLNASFRLDYPDLSYLYQMDFSEPSKVNEQLDWRLQVKRNSNMQVPPVITEIVSGSRAAFPLRLAHVDEYVKEGIALCGDAAHNTHPLAGQGLNTGIQDVESLISALSFAIKHGQDIGSVFSLQPYFRDRYFKNHVYLGVVDKFHKLYAMENPVVTSVRTLGLSLFDRSASLKNFILSTVANGI
B4: Coq7 (enzyme, UniProt O74826 28-216)
chain: ISMGRKELSEKDSNILDSVIRVDQAGELGANQIYKGQHFILQFTDPKVAPTIQHMWDQEKYHLATFDNYVLKNRVRPTFLRPFWDIAGFALGAGTALLGTKAAMACTEAVETVIGGHYNDQLRETAHLENKAPEFKEIRSHLAEFRDDELEHLNTAVEGWNAKEAPAHALLTNAIQMGCKAAIWMCKRF
B5: Isa2 (protein, UniProt O43045 1-205)
chain: MLMKSRVNLLFKGPFFFRERCFQTLLNPVIAIRQLSHGSLRNSRSCRIDAKSNTLTKEIFPKINNEFKIKNRFYSSKLANDQFTLQEQCDEKGIPFILYVKDSAKKQLEKIAERKPEENSVLRVTVDGGGCHGYQVSFRMDNKIGNADTVFVRGKARVVADNISLPLISGSEIEYTNELIGSSFQLLNNPRAKTSCGCNVSFDVE
B6: Coq11 (protein, UniProt O74482 1-276)
chain: MKIVVLGGSGFLGHNICKLAIAKGYEVVSVSRRGAGGLHNKEPWMDDVEWETLDAQKDPNSLLPVLRDASAVVNSVGILMENNYKKILQNPRGPVSHLINSLSSNMFKTGQNPLAPKPEEAKQSKNKVTFEAINRDLAIETAKIAAKANVPVYCYVSAHAAAPGLDPRYIKTKREAEREISKISNLRSIFLRPGFMYNFNDRPFTGALASLFTVSSSINRATSGALNFLGTASAEPLPSEEVALAALEAISDPSVKGPVEISELKSMAHKFKQKSL
B7: Coq3 (enzyme, UniProt O74421 31-274)
chain: HSVSVNEVDHFNELAKTWWDWDGGSRLLHLMNSTRLDFMTEVFRERNCFSGKKILDIGCGGGILSESMARLGASVTAVDASPMAIEVAKKHASLDPVLNGRLEYIHGSVEGSQLPTTFDVVTCMEVLEHVEQPRDFLFSLMEKVKPNGRLVLSTISRTLLARLLTITLAEHVLRIVPVGTHTFEKFIRADELSNFLKEQNWIINDIRGVCYNPLKQQWTLDKPGSSGLGLSCNYFLSAQKPMSA
B8: Coq4 (protein, UniProt O94453 1-272)
chain: MFYLNAHLEINKVVDVVMSLSKKFLKPSVASNQLRLLFTAAERKVNYPGHVPLSPLQRIFLVAGSAIMGLKAPWRGGDMISVLGDASGQPFFLHRLLNKMLVDKTGREILKDKPRMTSKSLNLPFLRTLPPNTLGKIYVDWIDKEHVGPDTRSPTRFVDDPEEAYVMQRYRESHDFYHAICNMPTNIEGELAIKWLEFVNMGLPVGALSALFGPLRLNCEQASRFRRVYIPWSIRNGLNAKTLINVYWEKELTNDIEDVRRRIRIEAAPPLV

Chains of the proteins cited; added tags and fusions are not shown. Lines headed by an entry give the natural chain unless they say otherwise; changes in a name come on top.
UniProt Q9UTQ4: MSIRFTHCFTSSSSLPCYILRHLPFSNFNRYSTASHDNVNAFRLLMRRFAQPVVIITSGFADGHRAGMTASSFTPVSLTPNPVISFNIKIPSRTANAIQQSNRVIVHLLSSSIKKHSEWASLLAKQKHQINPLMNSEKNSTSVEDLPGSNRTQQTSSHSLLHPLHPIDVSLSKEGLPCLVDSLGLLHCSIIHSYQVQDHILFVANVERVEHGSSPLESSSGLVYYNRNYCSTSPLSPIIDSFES

Target: Coq12-8xHis (S. pombe) (UniProt Q9UTQ4)
Experiment: affinity purification with mass spectrometry; Coq12-8xHis purified with Ni-NTA agarose from the soluble fraction of S. pombe whole cells, eluted with 300 mM imidazole, 50 mM sodium phosphate, 500 mM ammonium sulfate pH 7.4; nanoLC-MS/MS, label-free quantitation against an empty-vector control

binding, binds:
B1, B2, B3, B4, B5

Target: Coq12-8xHis (S. pombe) (UniProt Q9UTQ4)
Experiment: affinity purification with mass spectrometry; Coq12-8xHis purified with Ni-NTA agarose from the soluble fraction of S. pombe mitochondria, eluted with 300 mM imidazole, 50 mM sodium phosphate, 500 mM ammonium sulfate pH 7.4; nanoLC-MS/MS, label-free quantitation against an empty-vector control

binding, binds:
B1, B6, B2, B3, B4, B5, B7, B8
